Further values from the same series stand in other lists.
Experiment: Assay (I): Determination of Solubility (96-well plate, pH 3.0-11.0, organic solvent 0-70% w/w, UV absorption at 280 nm)
Format: physicochemical
Conditions: Method 1
Method: Assay (I): Determination of Solubility
96-Well Plate Preparation
96-well plates containing target peptide in a solid form were prepared in one of two ways:
Method 1 (evaporation): Addition of 100 μl stock solution of said peptide at a concentration of 4-6 mg/ml to each well of a 96-well half area plate (150 μl well size). Subsequently the solvent was evaporated by applying a vacuum until the solvent was completely removed.
Method 2 (precipitation): Addition of a certain volume of a stock solution of said peptide containing to each well of a 96-well half area plate followed by the addition of a certain volume of concentrated phosphoric acid to obtain a pH of 4.6 followed by addition of a certain volume of ethanol resulting in a final ethanol concentration of 20% v/v. Subsequently the plate was stored at 4° C. for 1 h and then centrifuged at 4,000 rpm for 20 min. Finally the supernatant was removed. The concentration of the stock solution was chosen in a way that the final amount of peptide after supernatant removal was >0.4 mg per well.
In both cases the stock solution was prepared by adding de-ionized water to a certain amount of powder of said peptide followed by a stepwise addition of small amounts of a concentrated sodium hydroxide solution until said peptide was completely in solution.
To determine solubility of a target peptide at different pH and organic solvent concentrations, two different buffer systems were used in independent experiments to cover the whole range from pH 3.0 to pH 11.0. Buffer system 1 covers pH 3.0-7.5 and buffer system 2 covers pH 7.5-11.0. For each buffer system 96 different solvent compositions were premixed in the following way: • 1. A low pH buffer (adjusted to either pH 3.0 or pH 7.5) and a high pH buffer (adjusted to either pH 7.5 or pH 11.0) were mixed at 8 different ratios to obtain values between pH 3.0 and pH 7.5 or pH 7.5 and pH 11.0, respectively. The total volume after mixing was 300 μl. • 2. 12 different amounts of organic solvent were then added to these buffers to obtain organic solvent (e.g. ethanol) concentrations between 0 and 70% w/w. • 3. Water was then added to obtain a total weight of 1.0 g of solvent in each well.
After preparing the 96 different solvent systems, 100 μl of each system was transferred to the 96-well plate containing the solid form of the target peptide (prepared as described in the section “96-well plate preparation”). The plate was then stored at a given temperature (between 5° C. and 70° C.) for a given time on a rotating shaker set to 400 rpm. At regular time intervals the plate was centrifuged (4,000 rpm for 10 min) and a 10 μl sample was taken from each well. The samples were then analysed by UV absorption at 280 nm for peptide quantification. Peptide concentration results are given as UV absorption at 280 nm of the sample subtracted UV absorption at 280 nm of a well comprising 10 μl water.
The buffers used were as follows: • Buffer system 1 (for the pH range from pH 3.0-7.5)
• Buffer system 2 (for the pH ranae from pH 7.5-11.0)
Solubility of liraglutide was determined using Assay (I) described herein. Liraglutide was prepared using Method 1 (evaporation) or Method 2 (precipitation) as described in subsection “96-well plate preparation”.

- Peptide concentration after 24 h (MeCN 6.4% w/w, pH 6.9, 5° C.): >4.0 mg/mL
- Peptide concentration after 5 min (MeCN 6.4% w/w, pH 6.9, 70° C.): 3.0 mg/mL
- Peptide concentration after 180 min (MeCN 6.4% w/w, pH 6.9, 70° C.): >4.0 mg/mL
- Peptide concentration after 5 min (MeCN 6.4% w/w, pH 6.9, RT): 0.9 mg/mL
- Peptide concentration after 180 min (MeCN 6.4% w/w, pH 6.9, RT): 2.7 mg/mL
- Peptide concentration after 24 h (MeCN 6.4% w/w, pH 6.9, RT): >4.0 mg/mL
- Peptide concentration after 5 min (MeCN 6.4% w/w, pH 7.5, 5° C.): 1.1 mg/mL
- Peptide concentration after 180 min (MeCN 6.4% w/w, pH 7.5, 5° C.): 2.8 mg/mL
- Peptide concentration after 24 h (MeCN 6.4% w/w, pH 7.5, 5° C.): >4.0 mg/mL
- Peptide concentration after 5 min (MeCN 6.4% w/w, pH 7.5, 70° C.): 2.5 mg/mL
- Peptide concentration after 180 min (MeCN 6.4% w/w, pH 7.5, 70° C.): >4.0 mg/mL
- Peptide concentration after 5 min (MeCN 6.4% w/w, pH 7.5, RT): 1.1 mg/mL
- Peptide concentration after 180 min (MeCN 6.4% w/w, pH 7.5, RT): 3.1 mg/mL
- Peptide concentration after 24 h (MeCN 6.4% w/w, pH 7.5, RT): >4.0 mg/mL
- Peptide concentration after 5 min (MeCN 6.4% w/w, pH 8.0, 70° C.): 2.3 mg/mL
- Peptide concentration after 180 min (MeCN 6.4% w/w, pH 8.0, 70° C.): >4.0 mg/mL
- Peptide concentration after 5 min (MeCN 6.4% w/w, pH 8.0, RT): 1.0 mg/mL
- Peptide concentration after 180 min (MeCN 6.4% w/w, pH 8.0, RT): 2.2 mg/mL
- Peptide concentration after 24 h (MeCN 6.4% w/w, pH 8.0, RT): >4.0 mg/mL
- Peptide concentration after 5 min (MeCN 6.4% w/w, pH 8.5, 70° C.): 2.5 mg/mL
- Peptide concentration after 180 min (MeCN 6.4% w/w, pH 8.5, 70° C.): >4.0 mg/mL
- Peptide concentration after 5 min (MeCN 6.4% w/w, pH 8.5, RT): 0.9 mg/mL
- Peptide concentration after 180 min (MeCN 6.4% w/w, pH 8.5, RT): 2.7 mg/mL
- Peptide concentration after 24 h (MeCN 6.4% w/w, pH 8.5, RT): >4.0 mg/mL
- Peptide concentration after 5 min (MeCN 6.4% w/w, pH 9.0, 70° C.): 2.9 mg/mL
- Peptide concentration after 180 min (MeCN 6.4% w/w, pH 9.0, 70° C.): >4.0 mg/mL
- Peptide concentration after 5 min (MeCN 6.4% w/w, pH 9.0, RT): 0.9 mg/mL
- Peptide concentration after 180 min (MeCN 6.4% w/w, pH 9.0, RT): 2.5 mg/mL
- Peptide concentration after 24 h (MeCN 6.4% w/w, pH 9.0, RT): >4.0 mg/mL
- Peptide concentration after 5 min (MeCN 6.4% w/w, pH 9.5, 70° C.): 3.2 mg/mL
- Peptide concentration after 180 min (MeCN 6.4% w/w, pH 9.5, 70° C.): >4.0 mg/mL
- Peptide concentration after 5 min (MeCN 6.4% w/w, pH 9.5, RT): 0.9 mg/mL
- Peptide concentration after 180 min (MeCN 6.4% w/w, pH 9.5, RT): 2.4 mg/mL
- Peptide concentration after 24 h (MeCN 6.4% w/w, pH 9.5, RT): >4.0 mg/mL
- Peptide concentration after 5 min (MeCN 6.4% w/w, pH 10.0, 70° C.): 3.1 mg/mL
- Peptide concentration after 180 min (MeCN 6.4% w/w, pH 10.0, 70° C.): >4.0 mg/mL
- Peptide concentration after 5 min (MeCN 6.4% w/w, pH 10.0, RT): 1.0 mg/mL
- Peptide concentration after 180 min (MeCN 6.4% w/w, pH 10.0, RT): 3.1 mg/mL
- Peptide concentration after 24 h (MeCN 6.4% w/w, pH 10.0, RT): >4.0 mg/mL
- Peptide concentration after 5 min (MeCN 6.4% w/w, pH 10.5, 70° C.): 3.3 mg/mL
- Peptide concentration after 180 min (MeCN 6.4% w/w, pH 10.5, 70° C.): >4.0 mg/mL
- Peptide concentration after 5 min (MeCN 6.4% w/w, pH 10.5, RT): 0.9 mg/mL
- Peptide concentration after 180 min (MeCN 6.4% w/w, pH 10.5, RT): 2.8 mg/mL
- Peptide concentration after 24 h (MeCN 6.4% w/w, pH 10.5, RT): >4.0 mg/mL
- Peptide concentration after 5 min (MeCN 6.4% w/w, pH 11.0, 70° C.): 2.5 mg/mL
- Peptide concentration after 180 min (MeCN 6.4% w/w, pH 11.0, 70° C.): >4.0 mg/mL
- Peptide concentration after 5 min (MeCN 6.4% w/w, pH 11.0, RT): 0.8 mg/mL
- Peptide concentration after 180 min (MeCN 6.4% w/w, pH 11.0, RT): 2.3 mg/mL
- Peptide concentration after 24 h (MeCN 6.4% w/w, pH 11.0, RT): >4.0 mg/mL
- Peptide concentration after 5 min (MeCN 12.7% w/w, pH 3.0, 5° C.): 0.2 mg/mL
Structure (SMILES): CCCCCCCCCCCCCCCC(=O)N[C@@H](CCC(=O)NCCCC[C@H](NC(=O)[C@H](C)NC(=O)[C@H](C)NC(=O)[C@H](CCC(N)=O)NC(=O)CNC(=O)[C@H](CCC(=O)O)NC(=O)[C@H](CC(C)C)NC(=O)[C@H](Cc1ccc(O)cc1)NC(=O)[C@H](CO)NC(=O)[C@H](CO)NC(=O)[C@@H](NC(=O)[C@H](CC(=O)O)NC(=O)[C@H](CO)NC(=O)[C@@H](NC(=O)[C@H](Cc1ccccc1)NC(=O)[C@@H](NC(=O)CNC(=O)[C@H](CCC(=O)O)NC(=O)[C@H](C)NC(=O)[C@@H](N)Cc1cnc[nH]1)[C@@H](C)O)[C@@H](C)O)C(C)C)C(=O)N[C@@H](CCC(=O)O)C(=O)N[C@@H](Cc1ccccc1)C(=O)N[C@H](C(=O)N[C@@H](C)C(=O)N[C@@H](Cc1c[nH]c2ccccc12)C(=O)N[C@@H](CC(C)C)C(=O)N[C@H](C(=O)N[C@@H](CCCNC(=N)N)C(=O)NCC(=O)N[C@@H](CCCNC(=N)N)C(=O)NCC(=O)O)C(C)C)[C@@H](C)CC)C(=O)O [liraglutide, Arg34,Lys26-(N-epsilon-(gamma-L-glutamyl(N-alfa-hexadecanoyl)))-GLP-1(7-37)]
